The whole screen tested about 53,000 sequences, of which about 3,700 (7%) were called active.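 The calls were made as follows: active = gene knockdowns whose robust z-score for IL-1 alpha signal is at least 2 or at most -2, so actives lie on both sides; inactive = the rest.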 The list shows a part of the results.

The text below walks through data of PubChem BioAssay AID1508600 (Functional Genomics Laboratory (NCATS/FGL), 2020).

A short description of this test: Components of the Cytosolic LPS Sensing Pathway: Gene Identification via Genome-wide siRNA Screen.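 Also: robust z of the log signal after scaling to non-targeting control siRNA wells of the plate.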 To be noted: RAW264.7 macrophages, IL-1a HTRF, actives lie on both sides, screened at 100 nM (by protocol), cells primed 5 h with Pam3CSK4 first. The essentials:
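RAW264.7 mouse macrophages reverse-transfected with single siRNAs (100 nM final) for 48h, primed with Pam3CSK4 for 5 hours, then transfected with LipidA for 24 hour. Supernatant IL-1a read by HTRF; values normalized to negative-control median, log-transformed robust z-scores.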
A general note: In TR-FRET formats the signal depends on donor and acceptor labels being close together.
As to GGAAGAGAUCUUAAACUUATT against Trpd52l3, the z-score is inactive: 1.07.
For GGGUAAGAAGAACAUGUAGTT against Tgfbi the value was inactive: -0.949; for GGUGACAAAAAGUCAAAGATT against Dis3l2, inactive: -0.542.
Turning to GGCAGAGACCUCAAAACCATT against Selplg, the z-score is active: -2.33.
The result for GGAACUAAUUUUCACAGAGTT against Lmod2 reads inactive: 0.635; that for GCAAUAAUGAGACCUGCACTT against Edem1, inactive: -0.448.
The result for GGAGAUUACCGAAGCUGGUTT against Mpv17l2 reads inactive: -0.691.
As to CGUGACCUGAAAGUAUUUGTT against Gpc3, the z-score was inactive: -0.306.
The result for CCGAGCUUAUCGACAGGUATT against Stk24 reads inactive: 0.089; that for GGUAGUGGGUGUCAAUGCATT against Sfmbt1, inactive: 0.817; that for CGAGAAGAUUACCAUAAAUTT against Homez, inactive: -1.82.
For GCUUGGAAUAUAGGUUAUATT against Praf2 the value was inactive: 0.858.
For GGAACACUGUGAGAACAAGTT against Peak1 the value was inactive: 0.124; for CCAAUUUUGUCAUAGGACATT against Plbd1, inactive: -0.107; for GGUCUUUGUGCCAAUAGAGTT against Orc3, inactive: -0.895.
For CCCAGAGCUCCAAUUGCCUTT against Olfr938, the z-score was inactive: -0.713.
The result for GGAGCUCUUUGCCAAGAAUTT against Rbbp8nl reads inactive: -0.0986; that for GGAAAUGAAGCUCAUGGAATT against Dcdc5, inactive: -1.44; that for GGUGCUAGGAAUGAACGGGTT against Ripply1, inactive: 0.478.
On to UACCAGAAGUACCUGUCCCTT against Lbx1, for which the z-score was active: 3.33.
For GGGAAAUGGAGAGAUUUUUTT against Tnpo1 the value was inactive: -0.897.
For GACUCUUGUCCCAAGUGUUTT against Bloc1s4, the z-score was inactive: 0.144.
For GGCACUCAAAAACUGUGAGTT against Mrps7 the value was inactive: 0.486.
The result for CCUGACAGUAGUUACAGUATT against Olfr1080 reads inactive: 0.641; that for GGGAGGAACCUUUGAGAAUTT against Spats2, inactive: 0.0801.
The result for GGAAGCAUCAUGGAAAGGCTT against Snhg16 reads inactive: 1.67; that for GCAAACGACGAAAGUCCAATT against Usp49, inactive: -1.63.
For the sequence GGAAAAGAAUUUCCUCCCUTT against Aspa, the z-score is inactive: -1.74.
For GCAGAUACUGAGAUGCUAUTT against Dkk4, the z-score was active: 2.24.
For GGUCAAGGAGAUCACCUUCTT against Comp the value was inactive: -1.27; for GCUUUCAAGGGAUGAUUCATT against Zc3hav1, inactive: 0.489.
For GGAGAAAAUAAGCUGGUAGTT against Slc35f1 the value was active: 3.42.
With GCCAUGUUUAAGCAAUUGUTT against Vsx1, the z-score was inactive: -0.575.
The result for GCACUGAGCUUGACAAAGATT against Upp2 reads inactive: -0.174; that for GGGAACAUUAUGUGCUGGCTT against Pou2af1, inactive: 0.552; that for GCAAUGGUGGUUCUAAUAUTT against Cmya5, inactive: -0.00244.
The result for GGUGGUGAAGAAUUUUCUUTT against Serpini1 reads inactive: 1.89; that for GGUGAUAUUCUUUAAAGACTT against Mmp1b, inactive: 0.822; that for GCUGCACAACCUUUAUCAATT against Spata4, inactive: 1.25.
With GCUCCAGGGAGUUAACUGUTT against Osr2, the z-score is inactive: 0.0588.
For CGAUGAGACCAACAUCUUUTT against Gpr162, the z-score was inactive: 0.476.
For GGACGUGAGCUCUCUCUUCTT against Ap2b1 the value was inactive: 1.22.
The result for GGGAAUUCGUCUCUAGAUATT against Cabyr reads inactive: 1.32.
For CCCUCAACCCAUAAUAUUATT against Rnf115 the value was inactive: 0.246; for GGAGCGGAAUUUAUGGCGATT against Haglr, inactive: -0.866.
Regarding GGGCACACUAAUCAAUGAATT against Lilrb4a, the z-score is inactive: 1.25.
The result for GGGAGGACAGUCAUUGGUUTT against Phldb1 reads inactive: -1.84; that for GCUGUGAGCAAGAGUAAUCTT against Tcaf2, inactive: 0.953.
The result for GGGAAACACAAUUUACCUUTT against Elf1 reads active: 3.18; that for GGACGGGAAAUUUUUGAUCTT against Rnf149, inactive: 0.477.
The result for GGUGAUUGACUUGCCAGGATT against Fn3k reads inactive: -1.53; that for CCGAUUCAGGUUUCUGUCUTT against Cdc25a, inactive: -1.99.
Take GGUGAAAUACCCGUCUUAUTT against Cyp2f2: the z-score is inactive: -0.64.
With GGACCUUAUUGAUUCUCUATT against Tex21, the z-score is inactive: 1.09.
For GGAAAUUGGCAUCACGUUGTT against Anks3 the value was inactive: 1.74.
For GCGUGGUAUGGUAAAAGUUTT against Arx the value was inactive: -0.264; for GCUGACUCCGUGUUUUUAATT against Arhgef18, inactive: -0.539.
For GCGAGGAAUAACCCAGAUCTT against Olfr503 the value was inactive: -1.81; for GGAUUUUGUGAGUGUAAGATT against Ntng1, inactive: -0.624; for GGAUGAGGUUCUGAAAAUCTT against Rps2, inactive: -0.614.
For the sequence CCGGAGAUGGUUGCGUAGATT against Cdkn1c, the z-score is inactive: 0.939.
The result for CCACCAAUGAGUACGUCUATT against Prkcsh reads inactive: 0.733.
On to GAUGUUGGCUCAUCUAGUATT against Olfr1340, for which the z-score was inactive: -0.567.
The result for GGCAAAAUGAGUGAGAGGUTT against Ggct reads inactive: 0.805; that for CCCAUGCUAGAGAGAAUUCTT against Zfp563, inactive: -1.09; that for GGAAAUUACGACAUACAAATT against Rp1, inactive: 0.935.
The result for GGAAGAAAACAAGUAAAACTT against Ccr4 reads inactive: -0.0454.
For GGAUGAAGUCUUUCACUUUTT against Eapp the value was inactive: 0.947.
As for “GGUGAAACAGAGCAGAAAATT against 2810004N23Rik”, the z-score is inactive: 0.291.
The result for CCAUACAUAUAGACAAUCCTT against AY358078 reads inactive: 0.796; that for GGCCUUUGUUUCUAAGUACTT against Plag1, inactive: -0.156.
For AGUUCACGUAGAACCACGCTT against Vmo1 the value was inactive: 0.648.
In the case of GGAACUCAAGUUGUCUAUGTT against Plekhb2, the z-score is inactive: 0.995.
For CCUAUCGAGUGAAAGUAAATT against Abcg2 the value was inactive: -0.304; for GCUAGAUCUCACCAAACUUTT against Ddx21, inactive: -0.117; for GGGCUCUGUCAGAUAAUCUTT against Gm9918, inactive: 1.45.
Take GGUAGCACAUAGUCUAAAATT against AA467197: the z-score was inactive: 0.933.
For the sequence GGUCUAAGUCUGAAUGGCCTT against Agrp, the z-score was inactive: 0.539.
The result for GGGAUUUCACUCCCUAAAGTT against Lyrm7 reads inactive: 0.497; that for GGUCAAUAUCUUGAUGGUATT against Vmn1r213, inactive: -0.252.
The result for GAAAGAAAAUCGUGUCAGATT against Olfr1199 reads inactive: -0.187; that for GCUUGUUAGUUUAAUUAGGTT against Elovl5, inactive: 0.533; that for GGAGCAAGCCUUUAAAAGATT against Hnrnpk, inactive: 0.39.
For CCUCUCAAGAAAUCGUGCATT against Trim47, the z-score was inactive: 0.978.
For CCAAUACUAUACCAACUGCTT against Cacna1g the value was inactive: 0.291; for GCAAAAUUGGUUCCAAUGGTT against Rad51, inactive: 0.528; for GCUGUGCUACCCUCAUUCUTT against Npas4, inactive: -1.43.
The result for GCAUUGUGUCACAAAAUUUTT against Pde5a reads inactive: 0.0151; that for GGUGGUCAGGAAAUGAGUCTT against Lrch4, active: 2.09.
For GCCCAUAUCUUGCCGAAAUTT against Tm2d1 the value was inactive: 0.578.
As for GGGAGUUUGACAUUUUCGATT against Lect2, the z-score was inactive: -0.0931.
For the sequence GCCGAACAAAAACACCGAUTT against Trav3-3, the z-score was inactive: 1.1.
For GGCUGUCGGUUCAUUAACCTT against Atad1 the value was inactive: -0.739.
As to CCUAUGUUUGGUGAUUAUGTT against Alg6, the z-score was inactive: 0.264.
In the case of GCACGGAAGAAUCCAAAGATT against Miga1, the z-score was inactive: 1.68.
Take “CCUGCCUGGACUAUCAAGATT against A530095I07Rik”: the z-score is inactive: -1.44.
In the case of CCAUAACCCUUAGGAAAAGTT against Fam78b, the z-score is inactive: -0.0447.
Consider GCCUUAUGUGUUACAUUAUTT against Prkar1a, for which the z-score is inactive: 0.782.
For the sequence GGCUAUGGACAAUAUGACUTT against Fdx1, the z-score is inactive: -0.797.
Take GGAGAAUUUAGAGCUACCATT against Atg10: the z-score is inactive: -1.56.
For GGGUUAGUCACCUCAUUUUTT against Abhd5 the value was inactive: 1.08; for GCUGGGAUAUGAAAUCUAUTT against Gprc6a, active: 2.74; for GGAGAGCAUGUGACCAAAATT against Safb2, inactive: 0.758.
Take CGGGAAACGUGAAUUUUUUTT against Mtdh: the z-score was inactive: 0.635.
For GGACAAUUCAGAGUGAUAGTT against Mog the value was active: -2.21; for GGCUGUUCAUUUAGAAGAATT against Rps27l, inactive: 0.482.
The result for GGAACAGUGACUCUUCGGGTT against Sorbs1 reads inactive: -0.158.
